Laboratory results published in patent publication EP3925949A1, “AZIDO COMPOUNDS AND METHOD FOR MONITORING ACID CERAMIDASE ACTIVITY IN INTACT CELLS USING THEM” (Consejo Superior de Investigaciones Científicas (CSIC), priority 2020, dated 2021).

Tests used:
mitochondria = experiment: Confocal co-localization of probe/CO-1 staining with Mitotracker; format: cell-based; settings: for Manders' M1 coefficient / Manders' M2 coefficient / Pearson's (P) coefficient: probe 5 µM 4 h
Procedure: Cells were seeded at 1 × 10^5 cells/mL on glass-bottom plates and allowed to adhere for 24 h. For golgi staining, cells were incubated with 40 µL/well of CellLight Golgi-RFP BacMam 2.0 for 24 h. Medium was replaced with fresh medium containing RBM5-177, RBM5-019, RBM2-37 or RBM2-31 (5 µM final concentration) and cells were incubated for 20 min at 37 °C. After this time, the medium was replaced with fresh medium containing CO-1 (1 µM final concentration), and cells were incubated for 10 min. Then cells were washed 3 times with DMEM for 5 min at 37 °C, 75 nM LysoTracker Red DND-99 or 75 nM Mitotracker in phenol red-free DMEM was added to stain lysosomes or mitochondria, and cells were kept in the incubator for microscope analysis. Staining was viewed with a Zeiss LSM 880 confocal microscope or Leica TCS SP8-Hyvolution. Image analysis was performed using Fiji software.^[7] To measure the Manders's and Pearson's coefficients a threshold including organelles and discarding the background was set. Co-localization coefficients were measured using the JaCoP plugin (S. Bolte et al. J. Microsc. 2006, 224, 213-232) on the different stacks of images (at least n=4) with each stack containing 3-10 cells.

lysosomes = experiment: Confocal co-localization of probe/CO-1 staining with Lysotracker; format: cell-based; settings: for lysosome staining after 5 h chase: 5 h incubation in fresh medium after the probe pulse, prior to CO-1
[1] = Fig. 8, A375/+Dox with FB1 (100 µM, 24 h)
[2] = Fig. 2A/C, A549 cells, probe 5 µM 20 min, CO-1 1 µM 10 min, no chase
[3] = Fig. 2B/D, A549 cells, probe 5 µM 20 min, then medium for 5 h before CO-1
[4] = Fig. 3A, FD and FD/AC cells (cell type of the coefficients not specified), probe 5 µM 4 h
[5] = Fig. 3B, A375 cells +Dox or -Dox (not specified), probe 5 µM
[6] = Fig. 4, A375/+Dox, probe 5 µM 4 h, with FB1 (100 µM, 24 h)
[7] = Fig. 4, A375/+Dox, probe 5 µM 4 h, with vehicle
[8] = Fig. 7, A375/+Dox with SOCLAC (5 µM, 1 h), probe 5 µM 20 min
[9] = Fig. 7, A375/+Dox with vehicle, probe 5 µM 20 min
[10] = Fig. 7, A375/-Dox with vehicle, probe 5 µM 20 min

`CCCCCCCC(=O)N[C@@H](C)[C@H](O)CCCCCCCCCCCCN=[N+]=[N-]` [RBM5-177, N-((2S,3R)-15-azido-3-hydroxypentadecan-2-yl)octanamide] was tested, and the “Manders' M1 coefficient” value (mitochondria; [1]) was 0.059, the “Manders' M2 coefficient” value (mitochondria; [1]) was 0.043 and the “Pearson's (P) coefficient” value (mitochondria; [1]) was 0.224. For the same compound, the “Manders' M1 coefficient” value (mitochondria; Fig. 8, A375/+Dox with vehicle) was 0.194, the “Manders' M2 coefficient” value (mitochondria; Fig. 8, A375/+Dox with vehicle) was 0.697 and the “Pearson's (P) coefficient” value (mitochondria; Fig. 8, A375/+Dox with vehicle) was 0.355. The “lysosome staining after 5 h chase” value (lysosomes; A549 cells) was “staining remained stable with high co-localization with Lysotracker”, the “Manders' M1 coefficient” value (lysosomes; [2]) was 0.866 and the “Manders' M2 coefficient” value (lysosomes; [2]) was 0.744. For the same compound, the “Pearson's (P) coefficient” value (lysosomes; [2]) was 0.802, the “Manders' M1 coefficient” value (lysosomes; [3]) was 0.822 and the “Manders' M2 coefficient” value (lysosomes; [3]) was 0.711. For the same compound, the “Pearson's (P) coefficient” value (lysosomes; [3]) was 0.746, the “Manders' M1 coefficient” value (lysosomes; [4]) was 0.631 and the “Manders' M2 coefficient” value (lysosomes; [4]) was 0.760. For the same compound, the “Pearson's (P) coefficient” value (lysosomes; [4]) was 0.725, the “Manders' M1 coefficient” value (lysosomes; [5]) was 0.723 and the “Manders' M2 coefficient” value (lysosomes; [5]) was 0.713. For the same compound, the “Pearson's (P) coefficient” value (lysosomes; [5]) was 0.754, the “Manders' M1 coefficient” value (lysosomes; [6]) was 0.717 and the “Manders' M2 coefficient” value (lysosomes; [6]) was 0.761. For the same compound, the “Pearson's (P) coefficient” value (lysosomes; [6]) was 0.841, the “Manders' M1 coefficient” value (lysosomes; [7]) was 0.791 and the “Manders' M2 coefficient” value (lysosomes; [7]) was 0.778. The “Pearson's (P) coefficient” value (lysosomes; [7]) was 0.816.

For `C[C@H](N)[C@H](O)CCCCCCCCCCCCN=[N+]=[N-]` [RBM5-019, (2S,3R)-2-Amino-15-azidopentadecan-3-ol], the “Manders' M1 coefficient” value (mitochondria; Fig. 8, A375/+Dox with vehicle) was 0.179, the “Pearson's (P) coefficient” value (mitochondria; Fig. 8, A375/+Dox with vehicle) was 0.298 and 0.355 and the mitochondria staining (mitochondria; RBM5-19/CO-1 labelling system, all conditions tested (Fig. 8)) was “no mitochondria staining”. The “lysosome staining after 5 h chase” value (lysosomes; A549 cells) was “largely remained in the lysosome after the 5 h chase”, the “Manders' M1 coefficient” value (lysosomes; [2]) was 0.670 and the “Manders' M2 coefficient” value (lysosomes; [2]) was 0.774. For the same compound, the “Pearson's (P) coefficient” value (lysosomes; [2]) was 0.713, the “Manders' M1 coefficient” value (lysosomes; [3]) was 0.735 and the “Manders' M2 coefficient” value (lysosomes; [3]) was 0.688. The “Pearson's (P) coefficient” value (lysosomes; [3]) was 0.762, the “Manders' M1 coefficient” value (lysosomes; [8]) was 0.810 and the “Manders' M2 coefficient” value (lysosomes; [8]) was 0.795. The “Pearson's (P) coefficient” value (lysosomes; [8]) was 0.863, the “Manders' M1 coefficient” value (lysosomes; [9]) was 0.836 and the “Manders' M2 coefficient” value (lysosomes; [9]) was 0.730. For the same compound, the “Pearson's (P) coefficient” value (lysosomes; [9]) was 0.869, the “Manders' M1 coefficient” value (lysosomes; [10]) was 0.829 and the “Manders' M2 coefficient” value (lysosomes; [10]) was 0.733. The “Pearson's (P) coefficient” value (lysosomes; [10]) was 0.845.

Values joined by “and” are separate entries in the source; they are usually repeats but may differ in a detail not shown here. Equal values may be shown once.
